Our source for the binding values is publication PMC11335199.

Chains of the proteins cited; added tags and fusions are not shown.
UniProt Q6P6W3: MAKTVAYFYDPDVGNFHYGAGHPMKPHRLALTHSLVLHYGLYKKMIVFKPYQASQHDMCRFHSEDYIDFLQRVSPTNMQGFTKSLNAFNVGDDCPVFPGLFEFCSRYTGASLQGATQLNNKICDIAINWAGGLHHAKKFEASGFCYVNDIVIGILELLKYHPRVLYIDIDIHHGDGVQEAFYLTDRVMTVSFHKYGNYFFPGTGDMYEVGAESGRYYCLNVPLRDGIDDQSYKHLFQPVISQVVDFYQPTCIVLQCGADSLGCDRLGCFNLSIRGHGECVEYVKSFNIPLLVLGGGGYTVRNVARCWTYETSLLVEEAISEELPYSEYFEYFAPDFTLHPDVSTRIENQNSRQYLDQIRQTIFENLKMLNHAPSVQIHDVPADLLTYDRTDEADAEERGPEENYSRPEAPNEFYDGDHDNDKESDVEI
UniProt O35779: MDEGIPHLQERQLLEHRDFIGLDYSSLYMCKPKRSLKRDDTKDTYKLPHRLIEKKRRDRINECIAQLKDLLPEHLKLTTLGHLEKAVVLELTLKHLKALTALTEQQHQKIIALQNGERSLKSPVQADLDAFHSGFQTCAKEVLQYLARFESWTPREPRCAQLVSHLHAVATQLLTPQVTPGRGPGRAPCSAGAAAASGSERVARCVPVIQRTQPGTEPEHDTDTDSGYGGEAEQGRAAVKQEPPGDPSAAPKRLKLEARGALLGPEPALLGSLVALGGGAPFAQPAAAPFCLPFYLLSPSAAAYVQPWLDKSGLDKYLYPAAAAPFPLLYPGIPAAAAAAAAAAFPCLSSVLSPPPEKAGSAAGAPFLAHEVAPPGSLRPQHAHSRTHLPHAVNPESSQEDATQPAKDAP

These are yes or no findings as the source states them, for the method shown. In cells and extracts the contact can be indirect. Binding calls can cover weak binding; strength is not graded here.

Assay [1] deals with NCoR1 (nuclear receptor corepressor 1) (rat (endogenous in CA1 tissue)). In words: co-IP; rat CA1 tissue lysate (0.5 mg, RIPA buffer: 50 mM Tris-HCl pH 7.4, 150 mM NaCl, 2 mM EDTA, 1% IGEPAL CA-630, 20 mM N-ethylmaleimide) precipitated with anti-NCoR1 antibody and Protein A/G Mag Sepharose beads at 4 °C overnight, blotted with anti-DEC2 and anti-NCoR1; non-trained and trained rats, and PBS- or NMDA (8 mM)-injected rats; IgG as control.

In assay [2] the target is histone deacetylase 3 (HDAC3) (rat (endogenous in CA1 tissue)) (UniProt Q6P6W3). In words: co-IP; rat CA1 tissue lysates from trained and non-trained rats precipitated with anti-HDAC3 antibody, blotted with anti-NCoR1; IgG as control.

Turning to DEC2 (from UniProt O35779 1-410), the binding result in assay [1] is “binds”.
For “NCoR1 (nuclear receptor corepressor 1) (from UniProt A0A0G2K2B4)”, in assay [2], the binding result is “binds”.
